Screening data, single-dose tests

Sequences of proteins named here, by UniProt entry; tags and fusion partners are left off.
UniProt I6X8D2, whole entry: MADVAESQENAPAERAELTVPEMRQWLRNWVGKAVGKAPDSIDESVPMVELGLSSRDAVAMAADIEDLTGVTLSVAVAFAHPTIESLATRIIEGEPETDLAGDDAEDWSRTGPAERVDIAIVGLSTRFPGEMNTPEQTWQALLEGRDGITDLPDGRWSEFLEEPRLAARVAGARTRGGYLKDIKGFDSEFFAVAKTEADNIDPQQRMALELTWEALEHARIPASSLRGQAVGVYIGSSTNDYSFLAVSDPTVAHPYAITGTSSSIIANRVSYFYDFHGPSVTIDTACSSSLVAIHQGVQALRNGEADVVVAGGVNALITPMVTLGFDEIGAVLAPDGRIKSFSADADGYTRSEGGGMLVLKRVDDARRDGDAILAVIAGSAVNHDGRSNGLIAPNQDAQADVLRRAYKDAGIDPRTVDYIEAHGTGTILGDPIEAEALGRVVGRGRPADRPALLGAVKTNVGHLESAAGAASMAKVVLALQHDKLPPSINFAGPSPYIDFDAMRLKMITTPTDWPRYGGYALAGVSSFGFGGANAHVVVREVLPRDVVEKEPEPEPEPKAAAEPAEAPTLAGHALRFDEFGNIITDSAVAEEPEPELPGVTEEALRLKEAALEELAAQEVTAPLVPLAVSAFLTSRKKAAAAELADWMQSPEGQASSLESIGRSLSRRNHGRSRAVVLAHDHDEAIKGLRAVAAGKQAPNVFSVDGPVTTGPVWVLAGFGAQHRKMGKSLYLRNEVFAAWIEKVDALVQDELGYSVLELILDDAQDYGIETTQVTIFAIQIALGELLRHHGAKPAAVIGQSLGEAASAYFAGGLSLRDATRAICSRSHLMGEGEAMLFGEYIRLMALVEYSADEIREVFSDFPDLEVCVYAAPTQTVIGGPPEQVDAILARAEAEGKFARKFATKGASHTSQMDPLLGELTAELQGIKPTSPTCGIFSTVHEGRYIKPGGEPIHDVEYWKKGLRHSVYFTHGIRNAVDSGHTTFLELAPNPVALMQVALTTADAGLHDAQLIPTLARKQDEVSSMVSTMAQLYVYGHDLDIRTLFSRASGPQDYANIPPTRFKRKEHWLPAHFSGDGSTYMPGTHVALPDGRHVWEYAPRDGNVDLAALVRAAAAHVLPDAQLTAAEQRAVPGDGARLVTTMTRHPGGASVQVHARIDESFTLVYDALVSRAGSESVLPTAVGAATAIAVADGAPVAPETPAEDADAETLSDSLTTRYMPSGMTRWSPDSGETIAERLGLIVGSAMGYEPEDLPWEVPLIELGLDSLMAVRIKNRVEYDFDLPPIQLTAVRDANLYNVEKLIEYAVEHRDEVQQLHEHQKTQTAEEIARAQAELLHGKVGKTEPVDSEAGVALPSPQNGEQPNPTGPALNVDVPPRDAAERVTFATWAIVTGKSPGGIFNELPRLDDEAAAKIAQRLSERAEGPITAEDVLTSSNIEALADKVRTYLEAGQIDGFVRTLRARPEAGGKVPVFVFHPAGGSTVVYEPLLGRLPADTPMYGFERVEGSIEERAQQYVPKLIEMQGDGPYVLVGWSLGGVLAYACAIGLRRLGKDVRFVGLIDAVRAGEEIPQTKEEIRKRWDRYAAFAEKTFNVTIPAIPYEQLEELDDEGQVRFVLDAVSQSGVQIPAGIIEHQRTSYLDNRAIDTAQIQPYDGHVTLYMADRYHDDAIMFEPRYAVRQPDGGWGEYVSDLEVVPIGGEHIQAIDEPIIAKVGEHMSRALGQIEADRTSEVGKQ

From ChEMBL document CHEMBL3988442, “University of Dundee, Small-Polar-MMV Screening Library” (2021).

Toxoplasma: 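Assay of Toxoplasma gondii numbers, read through their beta-galactosidase reporter with a colour substrate. Concentration: 10 µM. The record gives no direction; the compounds picked for IC50 retests had high values, so higher reads as fewer parasites. About 67,000 compounds were tested under these conditions; 0.38% (about 260) showed 50% or more at least once.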
Pks13 thioesterase: 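Enzyme assay of the thioesterase domain of polyketide synthase 13; the read-out is not stated. Target: Polyketide synthase Pks13, Mycobacterium tuberculosis (UniProt I6X8D2). Compounds at 30 µM. The record gives no direction; the compounds picked for IC50 retests had high values, so higher reads as stronger inhibition. Of about 67,000 compounds tested this way, about 300 (0.46%) reached 50% or more in at least one test.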

Values are the deposited “Percent Effect”, in %.
The record does not define 0% and 100%; most values in the screen are far below 50% and negative numbers occur (in some assays of this library far below -100).
Compounds were drawn at random from those tested, without regard to their results.
A dash means the value is not listed here; it may have been measured.

SMILES,Toxoplasma,Pks13 thioesterase
Cn1cc(CN2CCc3c(cnc(-c4ccccc4)c3C(=O)O)C2)cn1.O=C(O)C(F)(F)F.O=C(O)C(F)(F)F,-6.627,-
CC/C=C(\C)CN1CCC(CNC(=O)c2c[nH]c(=O)c(Cl)c2)C1 (centres undefined),13.86,-
CSc1nccc(N2CCN(C)C3(CCNC(=O)CC3)C2)n1 (centres undefined),-3.744,-7.232
[H][C@@]12C[C@H](C(=O)Nc3ccccc3)[C@@]([H])(CN(C(=O)Nc3ccccc3)C1)O2,-1.726,-
COc1cc(NC(=O)c2cc(C)sc2C)c(C(=O)N(C)C)cc1OC,9.915,-15.54
COCCN1CCc2c(cnc(-c3ccoc3)c2C(=O)O)C1,-,-15.84
O=C(O)C1(Oc2ccccc2)CCN(c2ccncc2)CC1,5.921,-7.866
O=C(c1ccc(F)c(F)c1)N1CCN2CCCC2C1 (centres undefined),4.141,-20.15
Cc1nc2sccn2c1C(=O)N1CCn2nc(C(=O)NC3CC3)cc2C1,2.164,-18.64
Cc1cc(C(=O)NCCc2cn3nc(C)sc3n2)c(C)o1,1.163,0.7142
COCc1noc(-c2cc(Cl)c3c(c2)OCO3)n1,-9.94,2.679
CC(NCc1ccncc1)c1cc(F)ccc1N1CCN(C)CC1 (centres undefined),1.116,-16.12
CCOC(=O)N1CCC(NC(=O)c2cccc(C3CCCNC3)c2)CC1 (centres undefined),4.648,-6.333
COCCN1CCN(Cc2c(C3CCNCC3)[nH]c3ncccc23)CC1,-,-1.425
CCN1C(=O)CC(N(C)Cc2nc3ccccc3c(=O)[nH]2)C1=O (centres undefined),2.952,5.705
CC(C)NC(=O)CCNC(=O)Nc1cnn(-c2ccccc2Cl)c1,5.552,-38.81
COc1ccc(OCc2cc(C(=O)N3CCOCC3)n[nH]2)c(Cl)c1,0.4489,-1.14
CN(Cc1cncnc1)[C@H]1CN(CC2CC2)[C@@H]2CCCO[C@@H]21,-,-5.376
O=C(c1ccco1)N(c1ccc(F)cn1)C1CCOCC1,-0.3236,11.1
Cc1cc(C2CCCN(Cc3nnc(Cc4ccccc4)o3)C2)n[nH]1 (centres undefined),10.47,-4.019
C[C@@H]1C[C@@H]2CCN(Cc3ccncc3)C[C@H]2O1,-,-12.76
Cc1ccc(CN2CCc3ncc(CNS(C)(=O)=O)n3CC2)o1,-,13.93
CC1CCN(S(=O)(=O)NCC2CCOc3ccccc3C2)CC1 (centres undefined),5.381,-4.857
CC(C(=O)N1CCc2sccc2C1)N1CCC(S(N)(=O)=O)CC1 (centres undefined),6.065,-33.89
CN(C)[C@@H]1CCN(C(=O)Cc2ccc(F)cc2)[C@H]1Cc1ccncc1,-,1.219
CNC(=O)[C@H]1C[C@@H]2CN(C(=O)NCCc3ccccc3)C[C@H]1O2,-,-1.93
CN1C(=O)CC(c2ccccc2)C12CCN(CC1CCOCC1)CC2.O=C(O)C(F)(F)F (centres undefined),-8.987,-
CC1(C)[C@H](Cc2cc(CN3CCCCC3)on2)C[C@@H]1NC(=O)C1CC1,-1.232,19.85
CCc1ncncc1C(=O)N1CCN(Cc2cscn2)CC1,21.74,-3.246
CCc1nc(CC(=O)N2CCCC2c2c(C)nn(C)c2OC)cs1 (centres undefined),-4.209,-16.2
COc1ccccc1CC1CCCN(C(=O)c2nccnc2N)C1 (centres undefined),-6.18,-27.86
CN(Cc1noc(C2CC2)n1)C1CCCN(c2cccnn2)C1 (centres undefined),8.679,-5.894
N#Cc1ccc(NCCS(=O)(=O)N2CCc3ccccc32)nc1,-4.773,4.852
Cc1ccc(-c2nc(C(=O)N(C)CC(=O)N3CCCC3)cs2)c(C)c1,-0.1669,14.41
Cn1cc(C(=O)Nc2cccc(-c3ccc4c(c3)CCO4)n2)ccc1=O,-0.5618,1.731
Cc1cc(C[C@@H]2COC[C@H]2NCc2ccc(Cl)c(Cl)c2)on1.O=C(O)CC(O)(CC(=O)O)C(=O)O,7.964,-
Cn1cc(I)c(C(=O)NC2CCCCC2)n1,25.58,-24.12
CC(C)n1[nH]c(=O)c2c1NC(=O)CC2c1ccc2ncccc2c1 (centres undefined),0.9191,-
CCc1nc(CCNc2ccc(S(N)(=O)=O)cc2C#N)cs1,-8.261,-22
Cc1cc(NC(=O)N2CCC[C@@H]2CO)nn1-c1ccccc1Cl,-7.958,-5.014
O=C(O)C(F)(F)F.[H][C@@]12COC[C@]1([H])[C@H](OCc1csc(C)n1)CN2Cc1ccc(OC)cc1,10.81,-
COc1cc(CCC(=O)NC2CCCN(C)C2)ccc1OCC(F)(F)F (centres undefined),13.33,-2.876
COc1cccc(S(=O)(=O)NC(=O)CC2CCCO2)c1 (centres undefined),17.21,-23.88
O=C(O)c1cccnc1N1CCN(Cc2ccc(F)cc2)C(CCO)C1 (centres undefined),2.005,-6.887
O=C(C[C@@H]1COC[C@H]2CN(Cc3ccccn3)C[C@@H]12)N1CCOCC1,-,-6.29
CCN(CC(F)(F)F)C(=O)C1CCCN(Cc2ccno2)C1 (centres undefined),-1.514,-18.86
CC(C)NC(=O)NCCCOC1CCOCC1,5.939,-16.84
CC(CN1CCCC1=O)NC(=O)c1ccc(C(F)(F)F)[nH]c1=O (centres undefined),-1.134,15.96
COc1cccc(S(=O)(=O)NC(=O)CCC2CCCO2)c1 (centres undefined),15.85,19
Cn1nnc2c1C(COCc1cccnc1)CN(Cc1ccoc1)C2 (centres undefined),-,-13.43
CCc1nnc(Nc2cc(C)nc(C3CN(C(C)=O)CCO3)c2)s1 (centres undefined),22.97,-3.348
O=C(NC1CCC1)c1c2c(N3CCCC3)ncnc2n2ccccc12,11.24,-6.421

For reference, 5 entries once more:

- CC/C=C(\C)CN1CCC(CNC(=O)c2c[nH]c(=O)c(Cl)c2)C1 (centres undefined) | Toxoplasma: 13.86%
- Cc1cc(NC(=O)N2CCC[C@@H]2CO)nn1-c1ccccc1Cl | Toxoplasma: -7.958%; Pks13 thioesterase: -5.014%
- CCN1C(=O)CC(N(C)Cc2nc3ccccc3c(=O)[nH]2)C1=O (centres undefined) | Toxoplasma: 2.952%; Pks13 thioesterase: 5.705%
- Cn1cc(I)c(C(=O)NC2CCCCC2)n1 | Toxoplasma: 25.58%; Pks13 thioesterase: -24.12%
- Cc1nc2sccn2c1C(=O)N1CCn2nc(C(=O)NC3CC3)cc2C1 | Toxoplasma: 2.164%; Pks13 thioesterase: -18.64%